# Assay: Fmoc solid-phase peptide synthesis; Fmoc-Pro-p-alkoxybenzyl-alcohol-resin; PyBrop, BOP-Cl after N-methyl amino acids; EDCI/HOBt in solution; PyBop
# Details: whole synthesis, scale 3 mmol
substance,measurement,value
"N,N-dimethyl-Val-Val-NMe-Val-Pro-{1-[thiazol-(2)-yl]-2-phenyl}-ethylamide",crude mass,750 mg

# From patent US6015790A (BASF Aktiengesellschaft, priority 1997, dated 2000)
